Experimental data published in the supplement of paper PMC10849652.
The other results are listed elsewhere or left out.

The chains behind the UniProt entries cited, without tags or fusion partners. Where a name states a change or a piece, a line headed by the entry shows the natural chain unless it says otherwise.
UniProt Q12800: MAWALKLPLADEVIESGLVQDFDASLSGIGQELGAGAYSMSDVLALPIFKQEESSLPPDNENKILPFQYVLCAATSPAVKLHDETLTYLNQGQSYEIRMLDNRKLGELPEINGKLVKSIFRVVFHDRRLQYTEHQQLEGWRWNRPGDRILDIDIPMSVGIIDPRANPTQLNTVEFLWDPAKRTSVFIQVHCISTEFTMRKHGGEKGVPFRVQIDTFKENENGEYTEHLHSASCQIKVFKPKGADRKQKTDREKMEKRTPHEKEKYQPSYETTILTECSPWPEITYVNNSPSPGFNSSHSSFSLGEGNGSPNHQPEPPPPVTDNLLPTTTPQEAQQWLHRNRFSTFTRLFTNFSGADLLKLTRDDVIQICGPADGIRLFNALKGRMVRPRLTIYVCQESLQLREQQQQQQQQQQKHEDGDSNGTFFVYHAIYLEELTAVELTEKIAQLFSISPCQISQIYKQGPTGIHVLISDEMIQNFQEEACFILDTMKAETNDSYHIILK
UniProt Q6NUS6: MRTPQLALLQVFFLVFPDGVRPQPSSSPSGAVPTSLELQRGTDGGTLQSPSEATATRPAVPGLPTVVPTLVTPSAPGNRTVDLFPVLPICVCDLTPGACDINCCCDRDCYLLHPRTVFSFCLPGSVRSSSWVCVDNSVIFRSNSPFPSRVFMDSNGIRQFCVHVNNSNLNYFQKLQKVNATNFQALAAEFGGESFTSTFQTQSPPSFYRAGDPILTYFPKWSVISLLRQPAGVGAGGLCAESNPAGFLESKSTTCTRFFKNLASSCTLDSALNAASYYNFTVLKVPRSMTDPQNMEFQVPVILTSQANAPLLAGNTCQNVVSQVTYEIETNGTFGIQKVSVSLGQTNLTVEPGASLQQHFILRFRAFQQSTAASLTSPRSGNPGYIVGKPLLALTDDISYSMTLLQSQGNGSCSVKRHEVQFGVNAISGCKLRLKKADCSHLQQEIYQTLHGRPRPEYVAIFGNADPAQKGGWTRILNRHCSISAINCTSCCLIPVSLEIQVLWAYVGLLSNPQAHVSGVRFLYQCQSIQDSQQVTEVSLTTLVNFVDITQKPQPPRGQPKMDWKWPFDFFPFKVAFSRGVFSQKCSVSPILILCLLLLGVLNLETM
UniProt Q7L2K0: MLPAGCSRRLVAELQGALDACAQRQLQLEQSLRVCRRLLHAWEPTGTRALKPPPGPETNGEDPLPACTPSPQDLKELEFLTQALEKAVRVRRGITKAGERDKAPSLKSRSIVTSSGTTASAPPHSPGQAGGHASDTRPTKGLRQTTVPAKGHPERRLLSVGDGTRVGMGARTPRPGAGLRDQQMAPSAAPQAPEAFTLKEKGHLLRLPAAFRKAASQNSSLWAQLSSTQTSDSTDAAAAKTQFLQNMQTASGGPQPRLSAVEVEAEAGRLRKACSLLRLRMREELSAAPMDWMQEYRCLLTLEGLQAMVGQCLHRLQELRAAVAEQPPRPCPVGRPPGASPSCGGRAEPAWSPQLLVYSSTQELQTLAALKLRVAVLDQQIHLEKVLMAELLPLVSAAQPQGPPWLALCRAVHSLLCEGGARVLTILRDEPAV
UniProt Q9P0N9: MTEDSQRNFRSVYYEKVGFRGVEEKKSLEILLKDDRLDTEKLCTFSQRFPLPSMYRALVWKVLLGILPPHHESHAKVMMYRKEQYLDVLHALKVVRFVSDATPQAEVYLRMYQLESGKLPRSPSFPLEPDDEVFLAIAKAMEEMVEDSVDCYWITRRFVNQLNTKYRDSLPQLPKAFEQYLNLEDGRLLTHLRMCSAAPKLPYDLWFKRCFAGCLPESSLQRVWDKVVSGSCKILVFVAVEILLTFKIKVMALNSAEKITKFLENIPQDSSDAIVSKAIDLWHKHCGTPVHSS
UniProt Q8N9U0: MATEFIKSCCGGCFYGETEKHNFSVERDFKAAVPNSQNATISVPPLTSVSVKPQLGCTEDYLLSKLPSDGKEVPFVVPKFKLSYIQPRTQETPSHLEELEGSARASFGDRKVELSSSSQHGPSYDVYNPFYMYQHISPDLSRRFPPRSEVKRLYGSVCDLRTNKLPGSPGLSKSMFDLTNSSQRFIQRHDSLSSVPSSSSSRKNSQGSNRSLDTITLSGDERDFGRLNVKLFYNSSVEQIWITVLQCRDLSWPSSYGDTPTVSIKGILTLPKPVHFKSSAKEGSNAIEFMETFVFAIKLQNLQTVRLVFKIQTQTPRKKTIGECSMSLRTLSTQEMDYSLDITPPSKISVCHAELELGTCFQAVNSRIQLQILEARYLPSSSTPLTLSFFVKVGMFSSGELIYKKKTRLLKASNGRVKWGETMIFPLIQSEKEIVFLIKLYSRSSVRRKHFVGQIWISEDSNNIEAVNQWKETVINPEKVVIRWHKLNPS
UniProt Q13488, whole entry, looked up: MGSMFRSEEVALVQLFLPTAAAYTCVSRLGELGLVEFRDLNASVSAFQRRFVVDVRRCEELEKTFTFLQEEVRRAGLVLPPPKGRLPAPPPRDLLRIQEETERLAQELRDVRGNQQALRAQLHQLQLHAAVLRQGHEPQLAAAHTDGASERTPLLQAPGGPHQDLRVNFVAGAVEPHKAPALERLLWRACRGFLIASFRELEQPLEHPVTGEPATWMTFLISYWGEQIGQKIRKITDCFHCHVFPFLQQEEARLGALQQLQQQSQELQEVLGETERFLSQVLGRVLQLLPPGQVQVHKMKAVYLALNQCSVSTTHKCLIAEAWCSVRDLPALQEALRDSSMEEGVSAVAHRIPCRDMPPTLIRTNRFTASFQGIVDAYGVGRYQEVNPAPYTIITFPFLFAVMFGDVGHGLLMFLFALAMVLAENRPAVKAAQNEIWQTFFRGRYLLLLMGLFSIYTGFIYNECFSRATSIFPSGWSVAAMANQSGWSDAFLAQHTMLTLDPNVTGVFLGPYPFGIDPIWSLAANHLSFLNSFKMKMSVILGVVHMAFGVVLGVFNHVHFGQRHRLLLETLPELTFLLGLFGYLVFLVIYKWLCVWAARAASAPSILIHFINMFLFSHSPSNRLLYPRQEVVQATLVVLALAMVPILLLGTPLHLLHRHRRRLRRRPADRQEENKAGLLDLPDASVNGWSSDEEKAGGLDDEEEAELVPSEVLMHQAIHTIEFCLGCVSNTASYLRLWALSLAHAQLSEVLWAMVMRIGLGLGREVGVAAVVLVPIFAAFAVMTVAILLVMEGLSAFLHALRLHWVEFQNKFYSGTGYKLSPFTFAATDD
UniProt Q04726: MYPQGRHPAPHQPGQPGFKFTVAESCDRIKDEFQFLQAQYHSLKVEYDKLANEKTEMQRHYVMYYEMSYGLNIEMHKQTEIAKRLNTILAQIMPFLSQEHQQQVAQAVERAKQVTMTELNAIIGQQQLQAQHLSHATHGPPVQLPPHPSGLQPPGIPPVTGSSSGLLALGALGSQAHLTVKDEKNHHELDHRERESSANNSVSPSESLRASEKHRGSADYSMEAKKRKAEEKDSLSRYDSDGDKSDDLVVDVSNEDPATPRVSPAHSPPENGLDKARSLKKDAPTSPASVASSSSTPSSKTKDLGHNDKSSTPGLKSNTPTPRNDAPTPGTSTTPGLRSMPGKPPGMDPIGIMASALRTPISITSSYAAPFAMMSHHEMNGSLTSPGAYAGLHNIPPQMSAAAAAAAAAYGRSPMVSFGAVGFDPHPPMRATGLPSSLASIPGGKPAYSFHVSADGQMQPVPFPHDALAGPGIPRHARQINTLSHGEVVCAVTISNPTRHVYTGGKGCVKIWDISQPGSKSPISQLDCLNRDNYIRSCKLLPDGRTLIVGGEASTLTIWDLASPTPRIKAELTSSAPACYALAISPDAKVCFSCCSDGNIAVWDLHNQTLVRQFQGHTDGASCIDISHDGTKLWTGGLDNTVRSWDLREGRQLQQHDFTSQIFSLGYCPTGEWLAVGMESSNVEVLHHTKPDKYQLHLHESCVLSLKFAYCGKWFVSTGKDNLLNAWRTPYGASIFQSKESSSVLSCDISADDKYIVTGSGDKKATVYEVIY
UniProt Q9NUJ3: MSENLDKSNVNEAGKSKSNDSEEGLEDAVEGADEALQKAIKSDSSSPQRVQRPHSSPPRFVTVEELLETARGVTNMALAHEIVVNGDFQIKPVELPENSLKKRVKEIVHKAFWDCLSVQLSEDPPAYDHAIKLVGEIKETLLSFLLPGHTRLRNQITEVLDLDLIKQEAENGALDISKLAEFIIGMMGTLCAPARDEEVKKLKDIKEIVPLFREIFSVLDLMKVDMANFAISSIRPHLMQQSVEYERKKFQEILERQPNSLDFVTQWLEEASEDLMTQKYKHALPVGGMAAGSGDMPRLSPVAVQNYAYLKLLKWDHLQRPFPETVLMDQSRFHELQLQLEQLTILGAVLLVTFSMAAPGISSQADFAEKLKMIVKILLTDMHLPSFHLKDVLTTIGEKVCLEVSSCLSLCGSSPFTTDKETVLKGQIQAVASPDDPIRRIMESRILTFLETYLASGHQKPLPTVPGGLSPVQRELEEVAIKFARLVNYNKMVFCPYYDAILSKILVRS
UniProt Q9BU02: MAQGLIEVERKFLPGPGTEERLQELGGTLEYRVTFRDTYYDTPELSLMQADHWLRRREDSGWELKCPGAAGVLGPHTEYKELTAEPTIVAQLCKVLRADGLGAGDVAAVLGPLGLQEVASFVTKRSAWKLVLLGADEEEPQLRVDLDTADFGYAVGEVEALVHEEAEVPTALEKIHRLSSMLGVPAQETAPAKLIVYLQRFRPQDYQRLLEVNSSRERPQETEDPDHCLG
UniProt Q9UHQ7: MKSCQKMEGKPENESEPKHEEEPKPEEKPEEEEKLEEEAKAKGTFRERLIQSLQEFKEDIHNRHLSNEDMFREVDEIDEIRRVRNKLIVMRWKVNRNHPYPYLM
UniProt Q9BQ70: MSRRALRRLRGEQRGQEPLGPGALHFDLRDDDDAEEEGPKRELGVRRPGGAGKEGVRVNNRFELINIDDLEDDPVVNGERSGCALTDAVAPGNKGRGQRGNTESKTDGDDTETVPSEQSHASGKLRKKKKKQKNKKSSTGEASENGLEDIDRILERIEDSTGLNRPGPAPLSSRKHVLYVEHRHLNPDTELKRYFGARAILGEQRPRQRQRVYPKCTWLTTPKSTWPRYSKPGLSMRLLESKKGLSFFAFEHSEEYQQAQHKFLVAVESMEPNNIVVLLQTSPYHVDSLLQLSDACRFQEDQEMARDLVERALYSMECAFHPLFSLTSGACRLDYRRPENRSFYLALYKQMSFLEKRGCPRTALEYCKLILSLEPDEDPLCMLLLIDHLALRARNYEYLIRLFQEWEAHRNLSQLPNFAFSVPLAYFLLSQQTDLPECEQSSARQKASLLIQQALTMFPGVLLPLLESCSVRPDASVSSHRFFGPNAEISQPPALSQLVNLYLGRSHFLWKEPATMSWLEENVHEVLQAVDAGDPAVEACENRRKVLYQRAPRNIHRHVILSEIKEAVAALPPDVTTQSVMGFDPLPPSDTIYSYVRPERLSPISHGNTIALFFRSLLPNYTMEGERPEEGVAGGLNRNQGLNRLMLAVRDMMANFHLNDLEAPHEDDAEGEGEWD
UniProt Q96CG3: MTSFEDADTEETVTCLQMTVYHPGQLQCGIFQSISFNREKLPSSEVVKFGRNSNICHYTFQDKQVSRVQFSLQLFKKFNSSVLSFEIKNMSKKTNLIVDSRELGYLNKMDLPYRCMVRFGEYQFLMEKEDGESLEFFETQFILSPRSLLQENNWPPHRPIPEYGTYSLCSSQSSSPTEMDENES
UniProt Q96EI5: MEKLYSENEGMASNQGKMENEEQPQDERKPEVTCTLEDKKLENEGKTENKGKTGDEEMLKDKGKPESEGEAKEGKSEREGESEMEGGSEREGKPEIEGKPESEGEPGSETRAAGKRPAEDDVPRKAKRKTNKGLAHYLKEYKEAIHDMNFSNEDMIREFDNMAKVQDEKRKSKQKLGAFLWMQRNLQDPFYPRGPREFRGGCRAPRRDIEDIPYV
UniProt P15884: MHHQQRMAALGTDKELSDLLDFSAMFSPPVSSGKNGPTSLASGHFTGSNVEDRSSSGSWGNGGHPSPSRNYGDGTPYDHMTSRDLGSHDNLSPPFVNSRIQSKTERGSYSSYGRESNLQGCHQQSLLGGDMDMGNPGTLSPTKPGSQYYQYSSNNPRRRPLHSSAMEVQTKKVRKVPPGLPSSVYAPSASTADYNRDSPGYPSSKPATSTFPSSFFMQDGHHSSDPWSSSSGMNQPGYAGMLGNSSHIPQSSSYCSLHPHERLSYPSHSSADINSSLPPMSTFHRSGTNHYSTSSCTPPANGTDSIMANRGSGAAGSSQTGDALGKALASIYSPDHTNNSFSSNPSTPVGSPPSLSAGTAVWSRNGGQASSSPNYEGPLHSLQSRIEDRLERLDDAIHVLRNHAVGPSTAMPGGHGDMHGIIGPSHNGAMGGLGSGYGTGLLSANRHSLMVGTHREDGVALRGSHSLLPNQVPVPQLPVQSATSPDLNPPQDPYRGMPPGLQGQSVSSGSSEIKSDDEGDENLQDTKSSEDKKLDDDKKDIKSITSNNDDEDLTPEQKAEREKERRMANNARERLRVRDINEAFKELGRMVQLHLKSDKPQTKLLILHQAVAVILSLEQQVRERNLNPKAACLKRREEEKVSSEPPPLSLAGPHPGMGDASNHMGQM

Legend:
Assay in all cases: log2 fold change, soluble protein after heating vs DMSO (PISA); higher = thermal stabilisation; K562 cells, 10 uM, 30 min; active = over 0.2 and 3.5 SD of the protein, either way, in both replicates (recomputed)
[1] = compound: NC(=O)Nc1cc(-c2cccc(F)c2)sc1C(=O)N[C@H]1CCCNC1
Summary of the method: (§1)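 Values are thermal stability changes relative to control samples and are taken from duplicates. They are stated as log2 fold changes. Before quantification by TMTpro 16plex LC-MS/MS with equalised channel sums, K562 cells at 2×10^6 cells/mL were treated with 10 μM compound for 30 min, heated in aliquots for 3 min across 48°C-58°C, pooled, extracted in PBS with 0.5% NP-40 at 4°C, and centrifuged at 21,000xg for 90 min to give the soluble supernatant.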

entinostat = compound: Nc1ccccc1NC(=O)c1ccc(CNC(=O)OCc2cccnc2)cc1 [entinostat]
Summary of the method: as §1

vorinostat = compound: O=C(CCCCCCC(=O)Nc1ccccc1)NO [vorinostat]
Summary of the method: as §1

citarinostat = compound: O=C(CCCCCCNC(=O)c1cnc(N(c2ccccc2)c2ccccc2Cl)nc1)NO [citarinostat]
Summary of the method: as §1

[2] = compound: O=C1NC(=O)C(c2cnc3ccccn23)=C1c1cn2c3c(cc(F)cc13)CN(C(=O)N1CCCCC1)CC2
Summary of the method: as §1

[3] = compound: c1cc(OCCN2CCCCC2)cc(-c2n[nH]c3ccc(-c4nnc[nH]4)cc23)c1
Summary of the method: as §1

[4] = compound: NC(=O)c1cnc(N[C@@H]2CCCC[C@@H]2N)nc1Nc1cccc(-n2nccn2)c1
Summary of the method: as §1

[5] = compound: NC1(c2ccc(-c3nc4ccn5c(=O)[nH]nc5c4cc3-c3ccccc3)cc2)CCC1
Summary of the method: as §1

[6] = compound: NCC(=O)Nc1ccc(-n2nc(C(F)(F)F)cc2-c2ccc3c(ccc4ccccc43)c2)cc1
Summary of the method: as §1

silmitasertib = compound: O=C(O)c1ccc2c(c1)nc(Nc1cccc(Cl)c1)c1ccncc12 [silmitasertib]
Summary of the method: as §1

Measured: log2 fold change

TFCP2 (UniProt Q12800)
inactive: [1] 0.152 | entinostat -0.127 | vorinostat 0.015 | citarinostat -0.007 | [2] 0.163 | [3] -0.143

TDRD7 (UniProt Q8NHU6)
inactive: [4] -0.645 | [5] -0.135 | [6] -0.114 | vorinostat -0.09 | citarinostat -0.163 | silmitasertib 0.167 | [2] 0.35 | [3] -0.045

TCTN3 (UniProt Q6NUS6)
inactive: [1] -0.133 | entinostat -0.072 | [2] 0.006

TEDC2 (UniProt Q7L2K0)
inactive: [4] 0.059

TBC1D7 (UniProt Q9P0N9)
inactive: [1] -0.218 | entinostat -0.012 | [2] 0.284

TBCK (UniProt Q8TEA7)
inactive: [4] -0.176 | vorinostat -0.126

TC2N (UniProt Q8N9U0)
inactive: [4] 0.015 | [5] -0.067 | [6] -0.13 | silmitasertib -0.186

TCIRG1 (UniProt Q13488)
inactive: [4] -0.338 | vorinostat 0.001 | citarinostat 0.072 | [2] 0.111 | [3] 0.155

TLE3 (UniProt Q04726)
inactive: citarinostat 0.023 | [3] 0.144

TCP11L1 (UniProt Q9NUJ3)
inactive: [4] -0.454 | [5] -0.23 | citarinostat -0.001 | silmitasertib 0.059 | [3] 0.229

TCAF2 (UniProt A6NFQ2)
inactive: citarinostat -0.086 | [2] 0.071 | [3] -0.03

THTPA (UniProt Q9BU02)
inactive: [4] 0.039 | [5] -0.051 | [6] -0.009 | citarinostat 0.048 | silmitasertib 0.07 | [3] -0.173

TCEAL9 (UniProt Q9UHQ7)
inactive: [1] -0.073 | entinostat 0.201 | [2] -0.005

TCF25 (UniProt Q9BQ70)
inactive: [4] 0.083 | [5] 0.096 | [6] 0.153 | vorinostat 0.133 | silmitasertib -0.059 | [2] -0.122

TEX10 (UniProt Q9NXF1)
inactive: [1] 0.222 | entinostat -0.179 | vorinostat 0.025 | citarinostat -0.539 | [3] -0.401

TFIP11 (UniProt Q9UBB9)
inactive: citarinostat 0.008 | [3] -0.166

TGM2 (UniProt A2A299)
inactive: [4] -0.153 | [5] 0.03 | [6] -0.323 | silmitasertib 0.262

TIFA (UniProt Q96CG3)
inactive: [1] -0.062 | [6] 0.158 | entinostat -0.093 | vorinostat -0.024 | [2] -0.036

Pulled one by one from the entries so far (2):
TGM2 (UniProt A2A299)
inactive: [4] -0.153 | [5] 0.03 | [6] -0.323 | silmitasertib 0.262

TEX10 (UniProt Q9NXF1)
inactive: [1] 0.222 | entinostat -0.179 | vorinostat 0.025 | citarinostat -0.539 | [3] -0.401

(further entries)

TCEAL4 isoform 2 (UniProt Q96EI5)
inactive: [6] 0.175 | vorinostat -0.119 | citarinostat 0.057 | [2] -0.039 | [3] 0.017

TCF4 isoform 3 (UniProt P15884)
inactive: vorinostat -0.028
